Results taken from PMC7070897 (Molecules, 2020).
No end group written: not given here. *: point of attachment. Boc = CC(C)(C)OC(=O)*

Assay: general procedure: Fmoc solid-phase peptide synthesis; TG-S-RAM (Iris Biotech), 0.23 mmol/mg; PyBop / NMM (PyAOP for lactam cyclization)
Conditions: whole synthesis; for crude HPLC purity / final HPLC purity / crude purity (method not given) / final purity (method not given): analytical UHPLC
[1] = scale of the general procedure 50 µmol

Substance | crude HPLC purity [1] | final HPLC purity [1] | crude mass (scale 50 µmol) | crude yield (scale 50 µmol) | difficulty met [1] | crude purity (method not given) [1] | final purity (method not given) [1] | crude purity (method not given) (scale 50 µmol) | final purity (method not given) (scale 50 µmol)
Ac-(cyclo-8,12))-[LAKLLKAKAKAD]-NH2 | 37% | >89% | 48.9 mg | 81% | 20% of dimerization product was observed in the crude peptide | – | – | – | –
Ac-(N-(2-(n-octadecylamino)-2-oxoethyl)-(cyclo-5,9))-[LKKLKKKLEKKL]-NH2 | – | – | 66.8 mg | 75% | – | 77% | >91% | – | –
Ac-(N-(2-(n-dodecylamino)-2-oxoethyl)-(cyclo-8,12))-[LAKLLKAKAKAD]-NH2 | – | – | 64.3 mg | 85% | – | 63% | >91% | – | –
Ac-(N-(2-(n-octadecylamino)-2-oxoethyl)-(cyclo-1,5))-[KKKLEKKLLKKL]-NH2 | – | – | 65.2 mg | 73% | – | 69% | >89% | – | –
Ac-LKKLLKKLLKKL | 86% | >98% | 69.1 mg | 92% | – | – | – | – | –
Ac-(N-(2-(n-butylamino)-2-oxoethyl)-(cyclo-8,12))-[LAKLLKAKAKAD]-NH2 | – | – | 47.2 mg | 67% | – | 54% | >94% | – | –
Ac-LAK(Boc)LLK(Boc)AKAK(Boc)AD | – | – | – | – | – | – | – | >83% | >98%
Ac-(cyclo-8,12))-[LKKLLKKKLKKE]-NH2 | 63% | >93% | 61.5 mg | 81% | – | – | – | – | –
Ac-(N-(2-(n-octadecylamino)-2-oxoethyl)-(cyclo-8,12))-[LKKLLKKKLKKE]-NH2 | – | – | 68.1 mg | 76% | – | 71% | >93% | – | –
Ac-(N-(2-(n-octadecylamino)-2-oxoethyl)-(cyclo-3,7))-[LKKLLKELLKKL]-NH2 | – | – | 72.4 mg | 81% | – | 68% | >90% | – | –
